Measured values as given in publication PMC7064778.
No constants are given. Whether binding was seen depends on the method and setting.

Amino acid sequences for entries named in this document (tags omitted). A change or cut given only in a name is not applied to a line headed by its entry. Residues count along the entry.
UniProt Q9I4Y4: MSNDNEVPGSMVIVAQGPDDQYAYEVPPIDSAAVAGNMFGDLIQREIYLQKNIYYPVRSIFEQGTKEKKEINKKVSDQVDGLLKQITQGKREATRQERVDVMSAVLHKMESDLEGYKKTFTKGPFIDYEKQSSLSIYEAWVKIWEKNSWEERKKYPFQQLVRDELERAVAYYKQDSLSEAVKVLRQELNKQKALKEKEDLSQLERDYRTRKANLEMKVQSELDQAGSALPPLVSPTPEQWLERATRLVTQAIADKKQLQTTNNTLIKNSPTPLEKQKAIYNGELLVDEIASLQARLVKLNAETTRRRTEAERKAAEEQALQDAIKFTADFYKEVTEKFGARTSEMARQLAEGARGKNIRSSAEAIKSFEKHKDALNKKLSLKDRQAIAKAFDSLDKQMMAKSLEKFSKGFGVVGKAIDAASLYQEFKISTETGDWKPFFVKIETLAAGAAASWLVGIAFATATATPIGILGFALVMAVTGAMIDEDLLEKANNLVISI
PyoS5_(194–315): residues 194-315 of Q9I4Y4
UniProt P42512, residues 39-720: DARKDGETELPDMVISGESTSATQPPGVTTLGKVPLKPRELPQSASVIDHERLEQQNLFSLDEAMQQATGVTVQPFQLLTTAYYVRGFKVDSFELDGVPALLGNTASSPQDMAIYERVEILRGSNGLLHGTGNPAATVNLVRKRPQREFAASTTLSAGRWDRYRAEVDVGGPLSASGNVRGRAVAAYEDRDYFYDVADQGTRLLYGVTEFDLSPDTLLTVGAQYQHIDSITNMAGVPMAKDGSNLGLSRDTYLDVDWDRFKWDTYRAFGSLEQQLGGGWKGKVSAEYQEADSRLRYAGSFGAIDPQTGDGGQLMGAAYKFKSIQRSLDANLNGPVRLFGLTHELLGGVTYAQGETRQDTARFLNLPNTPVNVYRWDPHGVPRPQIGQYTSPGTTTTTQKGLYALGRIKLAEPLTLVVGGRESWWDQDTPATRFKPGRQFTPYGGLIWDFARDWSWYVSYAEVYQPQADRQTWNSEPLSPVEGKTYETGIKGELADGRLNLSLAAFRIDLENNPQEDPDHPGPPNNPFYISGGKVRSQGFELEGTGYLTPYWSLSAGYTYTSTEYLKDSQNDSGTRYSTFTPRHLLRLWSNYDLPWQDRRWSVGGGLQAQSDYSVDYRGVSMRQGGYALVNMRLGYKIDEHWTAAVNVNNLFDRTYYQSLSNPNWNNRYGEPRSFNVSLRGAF

Assays:
[1] = molecular target: Pyocin S5 (P. aeruginosa) (UniProt Q9I4Y4); assay: SEC-MALS; both purified
[2] = molecular target: PyoS5_(194–315) (P. aeruginosa) (UniProt Q9I4Y4); assay: SPR; both purified

Row | Substance | binding [1] | binding [2]
1 | Pyocin S5 (from UniProt Q9I4Y4 1-498) | no binding (tested: 0.6 to 9.5 mg/ml) | 
2 | ferric pyochelin transporter FptA (from UniProt P42512 39-720) (receptor) |  | no binding (tested: FptA 0.03 to 32 μM)
